Measurements reported in PubChem BioAssay AID445 (National Center for Advancing Translational Sciences (NCATS), 2006).
The list shows a part of the results. Further columns of the screen follow, without active or inactive calls. Most of these compounds were active or inconclusive in the main read-out, so they are no random draw. Words in brackets tell the shape of the fitted curve; partial curves, single points and poor fits give uncertain potencies.

Test: IkB Signaling
Conditions: ABC-DLBCL IkBa-CBG/CBR dual luciferase ratio (green luciferase fused to IkBa over red control in OCI-Ly3 lymphoma cells), 4 h
Method in brief: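 In this assay, an IκBα–CBG68 fusion accumulates when IKK-driven degradation is blocked; native CBR normalizes for cell number. OCI-Ly3 cells were treated 4 h with compound and doxycycline, then green and red light read after Chroma-Glo addition.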

[1] = measured here: control luc red channel unless noted
[2] = measured here: IkB-luc green channel
[3] = measured here: control luc red channel

Which AC50 [1] does the source give for `O=C(NC1(C(F)(F)F)NC(=O)N(CCc2ccccc2)C1=O)c1ccccc1F` (centres undefined) here?
The AC50 was 39.8 µM [falling, partial curve].

For `Cc1ccc(NC(=O)CCc2c(C)nn(-c3ccc(N4CCCCC4)nn3)c2C)cc1F`, which AC50 [1] is on record?
Its AC50 is 12.6 µM [falling, partial curve].

For `O=C(Nc1cccc(-c2nnc(-c3ccccc3)o2)c1)C1CCCO1` (centres undefined), which AC50 [1] is on record?
The AC50 was 20 µM [falling, single point].

Which AC50 [1] does the source give for `CCOc1ccc2nc(N(Cc3cccnc3)C(=O)c3ccc4c(c3)OCCO4)sc2c1` here?
The AC50 was 31.6 µM [falling, partial curve].

Which AC50 [1] does the source give for `COc1ccccc1CNC(=O)Cn1c(=O)ccc2cc(S(=O)(=O)N3CCC(C)CC3)ccc21` here?
Its AC50 is 0.126 µM [falling, full curve, poor fit].

With `COC(=O)c1c(C)oc2c1cc(NS(=O)(=O)c1c(C)cc(C)cc1C)c1ccccc12` as the compound, how does the AC50 [1] read?
The AC50 was 12.6 µM [falling, partial curve].

For `O=S(=O)(c1ccc(Cl)cc1)c1nc(-c2ccccc2Br)oc1N1CCOCC1`, which AC50 [1] is on record?
The AC50 was 39.8 µM [falling, single point].

With `COc1ccc(N2CCN(C(=O)Cn3cnc4sc(C)c(S(=O)(=O)N5CCC(C)CC5)c4c3=O)CC2)cc1` as the compound, how does the AC50 [1] read?
Its AC50 is 10 µM [falling, partial curve].

With `CCOC(=O)c1ccc(N2C(=O)c3n[nH]c(C)c3C2c2ccc(O)c(OC)c2)cc1` (centres undefined) as the compound, how does the AC50 [1] read?
Its AC50 is 10 µM [falling, partial curve].

For `c1c2c(cc3sc(N4CCCCC4)nc13)OCCO2`, which AC50 [1] is on record?
The AC50 was 3.16 µM [falling, partial curve].

For `Cc1ccc(-n2ncc(C(=O)N3CCN(c4ccccn4)CC3)c2C2CCN(C(=O)OC(C)(C)C)CC2)cc1C`, which AC50 [1] is on record?
The AC50 was 15.8 µM [falling, partial curve].

Which AC50 [1] does the source give for `COc1ccc(C(=O)Nc2onc3c2CCCC3)cc1` here?
The AC50 was 39.8 µM [falling, single point].

Which AC50 [1] does the source give for `O=C(CSc1c2c(nc3ccc(Cl)cc13)CCCC2)N1CCN(C(=O)c2ccco2)CC1` here?
Its AC50 is 7.94 µM [falling, full curve, poor fit].

Which AC50 [1] does the source give for `CCOC(=O)C1=C(C)NC(C)=C(C(=O)OC)[C@H]1c1cccc([N+](=O)[O-])c1` here?
The AC50 was 39.8 µM [falling, partial curve].

Which AC50 [1] does the source give for `COc1ccc(C2=CC(c3ccc(N(C)C)cc3)n3nnnc3N2)cc1` (centres undefined) here?
Its AC50 is 1 µM [rising, full curve].

With `COc1cc(=O)n(C)c2cc(N(C)C)ccc12` as the compound, how does the AC50 [1] read?
The AC50 was 15.8 µM [rising, partial curve].

Which AC50 [1] does the source give for `CN(C)CCN1C(=O)C(O)=C(C(=O)c2cc3ccccc3o2)C1c1ccc(N(C)C)cc1` (centres undefined) here?
The AC50 was 10 µM [falling, partial curve].

For `COc1ccc2c(c1)c1c(c(=O)n(-c3cccc(Cl)c3)c(=O)n1C)n2C`, which AC50 [1] is on record?
The AC50 was 1.26 µM [falling, full curve].

For `Cc1cccc2sc(N(Cc3cccnc3)C(=O)C3CCCCC3)nc12`, which AC50 [1] is on record?
The AC50 was 15.8 µM [falling, partial curve].

With `COc1ccc(CSc2nc3ccncc3n2Cc2nc(-c3ccc(OC)c(OC)c3)oc2C)cc1` as the compound, how does the AC50 [1] read?
The AC50 was 12.6 µM [falling, partial curve].

For `Cc1cccc(Cn2nnc3c(=O)[nH]c(C4CCN(C(=O)c5ccccc5F)CC4)nc32)c1`, which AC50 [1] is on record?
The AC50 was 3.98 µM [rising, single point].

Which AC50 [1] does the source give for `CCOC(=O)c1c(-c2ccccc2)oc2ccc(NS(=O)(=O)c3ccccc3)cc12` here?
The AC50 was 31.6 µM [falling, partial curve].

Which AC50 [1] does the source give for `COc1ccc(S(=O)(=O)NCc2cccn2Cc2cccc(C)c2)cc1OC` here?
The AC50 was 39.8 µM [falling, single point].

For `Cc1ccc(O)c(Sc2cc(C)ccc2O)c1`, which AC50 [1] is on record?
The AC50 was 6.31 µM [falling, partial curve].

For `O=C(c1c(Cl)nc2sccn12)N1CCN(c2cccc(Cl)c2)CC1`, which AC50 [1] is on record?
Its AC50 is 39.8 µM [falling, single point].

Which results are given for `Cc1sc2ncnc(Sc3nnnn3-c3ccc(Cl)cc3)c2c1C`?
AC50 [2]: 39.8 µM [rising, single point]; AC50 [3]: 15.8 µM [falling, partial curve]

For `CC(=O)c1ccc(NC(=O)CSc2nc(-c3ccccc3F)nc3c2c(=O)n(C)c(=O)n3C)cc1`, which AC50 [1] is on record?
Its AC50 is 31.6 µM [rising, single point] [measured here: IkB-luc green channel].

Which AC50 [1] does the source give for `Cc1ccc(N(C)S(=O)(=O)c2ccc3[nH]cc(C(=O)O)c(=O)c3c2)cc1C` here?
The AC50 was 20 µM [falling, single point].

For `Cc1ccc(C(=O)Nc2ccc3c(c2)N(C)C(=O)c2ccccc2S3)cc1F`, which AC50 [1] is on record?
Its AC50 is 25.1 µM [falling, partial curve, poor fit].

For `CCSc1nnc(NC(=O)CSc2nccn2-c2cccc(C)c2)s1`, which AC50 [1] is on record?
The AC50 was 15.8 µM [falling, partial curve].

Which AC50 [1] does the source give for `CC1Cc2cc(S(=O)(=O)NCc3ccc(F)cc3)ccc2N1C(=O)C1CCC1` (centres undefined) here?
The AC50 was 0.00631 µM [rising, full curve, poor fit].

For `CC(=O)Oc1ccc(-c2ccc(C(=O)O)cc2)cc1`, which AC50 [1] is on record?
Its AC50 is 3.16 µM [falling, full curve].

Which AC50 [1] does the source give for `COCCN(CCOC)S(=O)(=O)c1ccc(C(=O)Nc2nc(-c3ccncc3)cs2)cc1` here?
Its AC50 is 25.1 µM [falling, single point].

For `O=C(NCc1cccs1)c1ccc(CSc2nc3ccncc3n2Cc2cccc(F)c2)cc1`, which AC50 [1] is on record?
Its AC50 is 12.6 µM [falling, single point].

Which AC50 [1] does the source give for `O=C(CSc1nc2c([nH]c3ccccc32)c(=O)n1-c1ccc(F)cc1)N1CCCCCC1` here?
Its AC50 is 3.16 µM [rising, full curve].

Which AC50 [1] does the source give for `COc1ccccc1CNC(=O)Nc1ccc2c(c1)N(C)C(=O)c1ccccc1S2` here?
The AC50 was 7.94 µM [falling, partial curve].

With `O=C(Nc1ccc(S(=O)(=O)NCc2ccco2)cc1)c1ccc2ccccc2n1` as the compound, how does the AC50 [1] read?
Its AC50 is 39.8 µM [rising, single point] [measured here: IkB-luc green channel].

Which AC50 [1] does the source give for `Clc1cccc(-c2noc3ncnc(NC4CCCCC4)c23)c1` here?
Its AC50 is 6.31 µM [falling, partial curve].

For `COc1cccc2cc(-c3nc(-c4cccs4)no3)c(=O)oc12`, which AC50 [1] is on record?
Its AC50 is 1.58 µM [falling, partial curve].

Which AC50 [1] does the source give for `c1ccc2c(c1)Cn1c-2nc2ccccc21` here?
The AC50 was 10 µM [falling, partial curve].

For `COc1cc(NC(=O)CCc2c(C)nc3c(c(C)nn3-c3ccccc3)c2C)cc(OC)c1OC`, which AC50 [1] is on record?
The AC50 was 15.8 µM [falling, partial curve].

Which AC50 [1] does the source give for `CN1C(=O)C2CCCCN2c2ccc(C(=O)NCc3ccccc3Br)cc21` (centres undefined) here?
The AC50 was 31.6 µM [falling, single point].

With `CCOC(=O)c1c(C)c(C(=O)NCCc2ccc(OC)cc2)c(C)n1CC` as the compound, how does the AC50 [1] read?
Its AC50 is 2 µM [falling, single point].

Which AC50 [1] does the source give for `CC(C)(C)C1CCc2c(sc3c2C(=O)NC(c2ccco2)N3)C1` (centres undefined) here?
The AC50 was 31.6 µM [falling, single point].

Which AC50 [1] does the source give for `Cc1ccn2c(=O)c(C(=O)Nc3ccc(F)c(C(F)(F)F)c3)cnc2c1` here?
Its AC50 is 3.98 µM [rising, partial curve].

For `Cc1oc(-c2ccccc2F)nc1CN1CCC(C(=O)NCCc2ccc(Cl)cc2)CC1`, which AC50 [1] is on record?
Its AC50 is 12.6 µM [falling, partial curve].

Which AC50 [1] does the source give for `CCOc1ccc(-c2nonc2NC(=O)c2oc3ccc(Cl)cc3c2C)cc1` here?
Its AC50 is 0.794 µM [falling, full curve].

With `COC(=O)c1ccccc1NC(=O)CCCn1nc(C)c2sc3ccccc3c2c1=O` as the compound, how does the AC50 [1] read?
The AC50 was 15.8 µM [falling, single point].

Which AC50 [1] does the source give for `COc1ccc(-c2nnn3c2nc(NCc2ccccc2)c2ccccc23)cc1` here?
Its AC50 is 0.1 µM [falling, full curve].

For `CC1=C(C(=O)Nc2ccc(C)cc2C)C(CC(C)C)n2nc(SCc3ccccc3C)nc2N1` (centres undefined), which AC50 [1] is on record?
Its AC50 is 1 µM [falling, partial curve].

For `O=c1oc2c(F)cc(F)cc2cc1S(=O)(=O)c1ccc(F)cc1`, which AC50 [1] is on record?
Its AC50 is 31.6 µM [rising, partial curve] [measured here: IkB-luc green channel].

Which AC50 [2] does the source give for `Cc1cc(O)ccc1Nc1nc2ccccc2nc1Nc1ccc(O)cc1C` here?
Its AC50 is 1.58 µM [falling, full curve].

What about the AC50 [3] of the same compound?
The AC50 was 1.58 µM [falling, partial curve].

For `CCOc1ccccc1NC(=O)c1c(NCc2ccc(C)o2)sc2c1CCCCC2`, which AC50 [1] is on record?
The AC50 was 20 µM [falling, partial curve].

With `Cc1nc(C)c(CCNS(=O)(=O)c2ccc(C)c(C)c2)s1` as the compound, how does the AC50 [1] read?
The AC50 was 0.501 µM [rising, full curve, poor fit].

For `Cc1ccc(Cc2nc3ccccc3nc2SCC(=O)N2CCCCC2)cc1`, which AC50 [1] is on record?
The AC50 was 15.8 µM [falling, partial curve].

Which AC50 [1] does the source give for `CCOc1ccccc1-c1nc(-c2cc3ccccc3nc2OC)no1` here?
Its AC50 is 2.51 µM [falling, full curve, poor fit].

For `CCOc1ccc(CN2CCN(S(=O)(=O)c3ccc(Cl)cc3)CC2)cc1`, which AC50 [1] is on record?
Its AC50 is 25.1 µM [falling, single point].

With `Cc1ccc(C)c(NC(=O)c2ccc(=O)n(Cc3ccc(F)cc3)c2)c1` as the compound, how does the AC50 [1] read?
Its AC50 is 1.58 µM [rising, full curve].

For `Clc1cccc(N2CCN(c3nc4ccccc4c4nc(-c5cccnc5)nn34)CC2)c1`, which AC50 [1] is on record?
The AC50 was 6.31 µM [rising, single point].

With `O=C(O)CCCC(=O)Nc1cccc(-c2nc3ccccc3[nH]2)c1` as the compound, how does the AC50 [1] read?
The AC50 was 15.8 µM [falling, partial curve].

With `CCCCC(=O)Nc1cc(-c2nc3ccccc3o2)ccc1OC` as the compound, how does the AC50 [1] read?
Its AC50 is 31.6 µM [falling, single point].

For `COc1ccc(-c2ccc(NS(=O)(=O)c3ccccc3)cc2)nn1`, which AC50 [1] is on record?
The AC50 was 0.01 µM [rising, full curve, poor fit].
